Values quoted from earlier work in patent publication US9366676B2, “Fluorescent chemical compounds having high selectivity for double stranded DNA, and methods for their use” (LIFE TECHNOLOGIES CORPORATION, priority 2005, dated 2016).
At least one compound was matched to its structure with a doubt left.

Test system: DNA
Settings: cited from earlier work

## CC[n+]1c(-c2ccccc2)c2cc(N)ccc2c2ccc(N)cc21 [Ethidium bromide, reference compound]
  fluorescence quantum yield: about 0.15
